# This is one part of the list. Further columns of the screen follow, without active or inactive calls. Compounds called inactive in the main read-out are mostly missing here. Words in brackets tell the shape of the fitted curve; partial curves, single points and poor fits give uncertain potencies.
# Experiment: qHTS Assay to Find Inhibitors of Chronic Active B-Cell Receptor Signaling
# Details: ABC-DLBCL IkBa-CBG/CBR reporter, luminescence ratio (green luciferase fused to IkBa over red control in TMD8 lymphoma cells), 4 h
# Outline: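 Cell line TMD8 (human ABC DLBCL), stably expressing tet-inducible CBG68-IkBa fusion and CBR; IMDM/0.5% FBS; cpd up to 46 uM; dox induction, 4 h, 37C/5% CO2; dual luminescence; green/red ratio; MG132 control.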
# [1] = measured here: CBR red luminescence, cell number
# [2] = measured here: IkBa-CBG green luminescence
compound,measurement,setting,value
C(=N\Nc1nc2ccccc2s1)/c1ccc2c(c1)OCO2,AC50,[1],"13 µM [falling, partial curve, poor fit]"
CC(C)(C)NC(=O)CSc1nnc(Cc2ccc3c(c2)OCO3)n1C1CCCCC1,AC50,[1],"5.62 µM [falling, single point]"
CCCc1ccc(OCc2ccc(C(=O)O)o2)c(OC)c1,AC50,[1],"0.411 µM [falling, full curve]"
CCn1c(Cc2ccccc2)nnc1SCC(=O)Nc1ccc(S(N)(=O)=O)cc1,AC50,[1],"1.03 µM [rising, partial curve, poor fit]"
C/C(CC(=O)Nc1ccccn1)=N\NC(=O)c1ccccc1,AC50,[1],"16.4 µM [falling, partial curve]"
O=C(N/N=C\c1cn[nH]c1-c1ccccc1)c1cccs1,AC50,[1],"2.31 µM [falling, partial curve]"
CCOC(=O)c1cc(C(=O)Nc2ccccc2F)nn1C,AC50,[1],"5.8 µM [falling, partial curve]"
Cc1cccc(C)c1C(OCCN(C)C)C1CCCCC1 (configuration not stated),AC50,[1],"20.6 µM [falling, single point]"
COc1ccc(/C=C2\SC(=S)N(CCC(=O)Nc3cccc(C(=O)O)c3)C2=O)cc1OC,AC50,[1],"14.1 µM [falling, partial curve, poor fit]"
Cn1ccsc1=NC(=O)c1ccc(S(C)(=O)=O)c([N+](=O)[O-])c1,AC50,[1],"12.6 µM [falling, partial curve]"
O=C(COC(=O)CNC(=O)c1ccccc1Cl)Nc1ccccc1Cl,AC50,[1],"29.1 µM [rising, single point]"
Cc1nc(S(=O)(=O)Cc2ccccc2Cl)nc2c1CCC2,AC50,[1],"0.562 µM [rising, full curve, poor fit]"
Nc1c(N2CCOCC2)cc(Cl)c2nonc12,AC50,[1],"3.55 µM [rising, full curve, poor fit]"
same,AC50,[2],"8.91 µM [falling, partial curve, poor fit]"
CCCc1c(O)nc(SCC(=O)NCCc2ccc(OC)c(OC)c2)[nH]c1=O,AC50,[1],"2.91 µM [rising, partial curve, poor fit]"
CCCCN1C(=O)c2ccc(C(=O)Nc3ccc(S(=O)(=O)N(C)C)cc3)cc2C1=O,AC50,[2],"4.11 µM [rising, partial curve, poor fit]"
COc1ccc(-n2c(SCC(=O)Nc3ccc(C(N)=O)cc3)nc3ccccc3c2=O)cc1OC,AC50,[1],"6.31 µM [rising, single point]"
C/C(=N\NC(=O)C1CC1)c1ccc(Cl)cc1,AC50,[1],"0.291 µM [rising, full curve, poor fit]"
COc1cc(CC(=O)OCC(=O)Nc2cccc([N+](=O)[O-])c2)cc(OC)c1OC,AC50,[1],"4.11 µM [rising, partial curve, poor fit]"
Oc1cccc2ccc(/C=C/c3ccccc3Br)nc12,AC50,[1],"2.82 µM [rising, single point]"
C[C@H](CO)N1C[C@H](C)[C@@H](CN(C)Cc2ccc(Oc3ccccc3)cc2)Oc2c(NC(=O)c3ccncc3)cccc2C1=O,AC50,[1],"29.1 µM [falling, single point]"
Cc1c(CC(C)C)nc(N)c(C#N)c1-c1ccccc1,AC50,[1],"5.8 µM [falling, single point]"
O=C(O)c1ccc(N/N=C/c2cn(Cc3ccc(F)cc3)c3ccccc23)cc1,AC50,[2],"2 µM [rising, full curve, poor fit]"
C=CCn1cnc2c(NCc3ccccc3)ncnc21,AC50,[1],"3.66 µM [falling, partial curve, poor fit]"
COc1cccc(NC(=O)/C=C/c2ccc(S(=O)(=O)N3CCOCC3)cc2)c1,AC50,[1],"1.46 µM [falling, full curve]"
O=C(Cc1ncc(C(F)(F)F)cc1Cl)Nc1ccc(F)cc1,AC50,[1],"0.00461 µM [falling, full curve, poor fit]"
COc1ccccc1-c1nc(C(=O)NCC2CCCO2)cc2c1[nH]c1ccccc12 (configuration not stated),AC50,[1],"0.631 µM [falling, full curve]"
COc1cc(NC(=O)c2cccs2)c(C(=O)OCC(=O)NC(C)c2ccccc2)cc1OC (configuration not stated),AC50,[1],"20.6 µM [falling, single point]"
Cc1cc(C)c(S(=O)(=O)c2ccc(F)cc2C)c(Cl)n1,AC50,[1],"6.31 µM [falling, single point]"
Cc1nnc(NC(=O)C2COc3ccccc3O2)s1 (configuration not stated),AC50,[1],"35.5 µM [falling, single point]"
C[C@]1(C(=O)NCCCNc2ncc(C(F)(F)F)cc2Cl)C=C[C@@H](Cc2ccccc2)N1C(=O)c1ccccc1,AC50,[1],"18.4 µM [falling, single point]"
CC1=C(C(=O)OCc2ccc3c(c2)OCO3)C(c2ccc(F)cc2)NC(=O)N1 (configuration not stated),AC50,[1],"35.5 µM [falling, partial curve, poor fit]"
COc1ccc(C2(C(=O)N3CCCC3)CCOCC2)cc1OC,AC50,[1],"29.1 µM [rising, single point]"
COCCNc1c(-c2cc3ccc(C)c(C)c3[nH]c2=O)nc2ccccn12,AC50,[1],"5.62 µM [falling, partial curve]"
COc1ccc(Cl)cc1NC(=S)N(Cc1ccc(C(=O)O)cc1)Cc1ccc(OC)c(OC)c1,AC50,[1],"7.94 µM [falling, partial curve, poor fit]"
N#C/C(=C\c1ccc(-c2ccccc2[N+](=O)[O-])o1)C(=O)N1CCOCC1,AC50,[1],"4.47 µM [rising, full curve, poor fit]"
Cc1ccc(NS(=O)(=O)N2CCOCC2)cc1Cl,AC50,[1],"15.8 µM [rising, partial curve, poor fit]"
Cc1nc(-c2ccc(NC(=O)c3cccs3)cc2)cs1,AC50,[1],"2.31 µM [falling, full curve]"
O=C(NCCCN1CCCCC1)C1CCN(c2ncnc3c2nc2n3CCCCC2)CC1,AC50,[1],"3.16 µM [falling, single point]"
CN(C)c1ccc(Nc2nc(N)c3ccccc3n2)cc1,AC50,[1],"6.31 µM [falling, partial curve]"
C/C(CC(=O)NCc1ccco1)=N\NC(=O)Cc1ccc(-c2ccccc2)cc1,AC50,[1],"29.1 µM [falling, single point]"
CCSc1nsc(NC(=O)Nc2cccc(OC)c2)n1,AC50,[1],"10 µM [falling, partial curve, poor fit]"

# Exported with tabs: entries from further up.
compound	measurement	setting	value
Cc1nnc(NC(=O)C2COc3ccccc3O2)s1 (configuration not stated)	AC50	[1]	35.5 µM [falling, single point]
C[C@]1(C(=O)NCCCNc2ncc(C(F)(F)F)cc2Cl)C=C[C@@H](Cc2ccccc2)N1C(=O)c1ccccc1	AC50	[1]	18.4 µM [falling, single point]
CC1=C(C(=O)OCc2ccc3c(c2)OCO3)C(c2ccc(F)cc2)NC(=O)N1 (configuration not stated)	AC50	[1]	35.5 µM [falling, partial curve, poor fit]
